# The supplement of paper PMC4635364
# Counter-ions that a name gives are not always drawn. Some of the results follow. Single values are uncertain here, since repeats match poorly.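 Cells: ReNCell VM human fetal ventral-midbrain neural progenitors, differentiated mitogen-free. Blinded raters compared doublecortin-stained (early neurons) or tyrosine hydroxylase-stained (dopaminergic neurons) images with untreated wells, where 0 means no change. After repeats and both raters were averaged, compounds scoring 2 or above became hits for retesting.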
# Experiments:
# ReNCell VM [1] = assay: neuronal differentiation score (DCX+ cell fraction vs untreated, manual image score) (score (-3 to 3)); higher = more neuronal differentiation; settings: 2 uM, 2 weeks
# ReNCell VM [2] = assay: dopaminergic neuron differentiation score (TH+ cell fraction vs untreated, manual image score) (score (0 to 3)); higher = more TH+ dopaminergic neuron differentiation; settings: 2 uM, 4 weeks, BDNF 10 ng/ml + GDNF 10 ng/ml
smiles,measurement,setting,value
CC(=O)O[C@@H]1C[C@@]2(C)[C@H](c3ccoc3)C[C@H]3O[C@]32[C@]2(C)C(=O)C(O)=C3C(C)(C)C(=O)C=C[C@]3(C)[C@@H]12 [anthothecol],neuronal differentiation score,ReNCell VM [1]; library: Natural,inactive: 0
same,dopaminergic neuron differentiation score,ReNCell VM [2]; library: Natural,inactive: 0
C[C@]12CC[C@H]3[C@@H](CC[C@@]45O[C@@H]4C(O)=C(C#N)C[C@]35C)[C@@H]1CC[C@@H]2O,neuronal differentiation score,ReNCell VM [1]; library: Spectrum,inactive: 0
same,dopaminergic neuron differentiation score,ReNCell VM [2]; library: Spectrum,inactive: 0
"C1=CCC(c2cccnc2)NC1 (centres undefined) [1,2,3,6-Tetrahydro-[2,3']bipyridinyl]",neuronal differentiation score,ReNCell VM [1]; library: Natural,inactive: 1
same,dopaminergic neuron differentiation score,ReNCell VM [2]; library: Natural,inactive: 0
C/C=C(/C)C(=O)O[C@H]1CC[C@@]2(C)[C@@H]3CC[C@H]4[C@]5(O)C[C@H](O)[C@@]6(O)[C@@H](CN7C[C@@H](C)CC[C@H]7[C@@]6(C)O)[C@]5(O)C[C@]42O[C@]13O [Veratrine],neuronal differentiation score,ReNCell VM [1]; library: Phytochemical,inactive: 0
same,dopaminergic neuron differentiation score,ReNCell VM [2]; library: Phytochemical,inactive: 0
C[C@H](N)CN1CCc2ccc(Br)cc21 [VER-3323 hemifumarate salt],neuronal differentiation score,ReNCell VM [1]; library: LOPAC,inactive: 0
same,dopaminergic neuron differentiation score,ReNCell VM [2]; library: LOPAC,inactive: 0
c1ccc(C2(c3ccccc3)CC2C2=NCCN2)cc1 (centres undefined) [Cibenzoline succinate],neuronal differentiation score,ReNCell VM [1]; library: LOPAC,inactive: 0
same,dopaminergic neuron differentiation score,ReNCell VM [2]; library: LOPAC,inactive: 0
CC(C)[C@@]1(NC(=O)[C@@H]2C[C@@H]3c4cccc5[nH]cc(c45)C[C@H]3N(C)C2)O[C@@]2(O)[C@@H]3CCCN3C(=O)[C@H](Cc3ccccc3)N2C1=O [Dihydroergocristine methanesulfonate],neuronal differentiation score,ReNCell VM [1]; library: LOPAC,inactive: 1
same,dopaminergic neuron differentiation score,ReNCell VM [2]; library: LOPAC,inactive: 0
CCN1C[C@]2(COC)CC[C@H](O)[C@]34C1[C@@](O)([C@@H](OC)[C@H]23)[C@@]1(O)C[C@H](OC)[C@H]2C[C@@H]4[C@@H]1[C@H]2OC [Delsoline],neuronal differentiation score,ReNCell VM [1]; library: Phytochemical,inactive: 0
same,dopaminergic neuron differentiation score,ReNCell VM [2]; library: Phytochemical,inactive: 0
C[C@@H]1C[C@@H]([C@H](O)CC2CC(=O)NC(=O)C2)C(=O)[C@@H](C)C1,neuronal differentiation score,ReNCell VM [1]; library: Spectrum,inactive: 0
same,dopaminergic neuron differentiation score,ReNCell VM [2]; library: Spectrum,inactive: 0
C[C@@]12N[C@@H](Cc3ccccc31)c1ccccc12 [(-)-MK-801 hydrogen maleate],neuronal differentiation score,ReNCell VM [1]; library: LOPAC,inactive: 0
same,dopaminergic neuron differentiation score,ReNCell VM [2]; library: LOPAC,inactive: 0
O=C1CSC(c2ccccc2Cl)c2cc(Cl)ccc2N1 (centres undefined),neuronal differentiation score,ReNCell VM [1]; library: Tocriscreen,inactive: 0
same,dopaminergic neuron differentiation score,ReNCell VM [2]; library: Tocriscreen,inactive: 0
CC[C@H]1CN2CC[C@H]1C[C@H]2[C@H](O)c1ccnc2ccc(OC)cc12 [Hydroquinine hydrobromide hydrate],neuronal differentiation score,ReNCell VM [1]; library: Phytochemical,inactive: 0
same,dopaminergic neuron differentiation score,ReNCell VM [2]; library: Phytochemical,inactive: 0
N[C@@H](Cn1oc(=O)[nH]c1=O)C(=O)O [(+)-Quisqualic acid],neuronal differentiation score,ReNCell VM [1]; library: LOPAC,inactive: 0
same,dopaminergic neuron differentiation score,ReNCell VM [2]; library: LOPAC,inactive: 0
CCC(C)C(=O)O[C@@H]1C[C@@]2(C)[C@H](c3ccoc3)OC(=O)CC23OC2(C)O[C@]14[C@]1(C)[C@@H](CC(=O)OC)C5(C)CC1(O)[C@](O)(C5OC(=O)C1(C)OC1C)[C@@H](OC(C)=O)[C@]34O2 (some centres undefined),neuronal differentiation score,ReNCell VM [1]; library: Spectrum,inactive: 0
same,dopaminergic neuron differentiation score,ReNCell VM [2]; library: Spectrum,inactive: 0
NCCc1cc(O)c(O)cc1O,neuronal differentiation score,ReNCell VM [1]; library: Spectrum,inactive: 1
same,dopaminergic neuron differentiation score,ReNCell VM [2]; library: Spectrum,inactive: 0
O=c1[nH]c2ccccc2n1C1CCN(CCCC(c2ccc(F)cc2)c2ccc(F)cc2)CC1,neuronal differentiation score,ReNCell VM [1]; library: Spectrum,inactive: 0
same,dopaminergic neuron differentiation score,ReNCell VM [2]; library: Spectrum,inactive: 0
C[N+]1(C)CCc2cc3c(cc2[C@H]1[C@@H]1OC(=O)c2c1ccc1c2OCO1)OCO3 [(-)-Bicuculline methochloride],neuronal differentiation score,ReNCell VM [1]; library: Tocriscreen,inactive: 0
same,dopaminergic neuron differentiation score,ReNCell VM [2]; library: Tocriscreen,inactive: 0
CC1=CC(=O)c2c(O)cccc2C1=O,neuronal differentiation score,ReNCell VM [1]; library: Spectrum,inactive: 0
same,dopaminergic neuron differentiation score,ReNCell VM [2]; library: Spectrum,inactive: 0
Cc1cccc(C)c1NC(=O)CN1CCCC1=O [Nefiracetam],neuronal differentiation score,ReNCell VM [1]; library: LOPAC,inactive: 0
same,dopaminergic neuron differentiation score,ReNCell VM [2]; library: LOPAC,inactive: 0
CC1=C2C(=O)[C@H]3[C@@H](CC=C4C[C@@H](O)CC[C@@]43C)[C@@H]2CC[C@]12O[C@@H]1C[C@H](C)CN[C@H]1[C@H]2C [Jervine],neuronal differentiation score,ReNCell VM [1]; library: Phytochemical,inactive: 0
same,dopaminergic neuron differentiation score,ReNCell VM [2]; library: Phytochemical,inactive: 0
COP(=S)(OC)Oc1ccc(SC)c(C)c1,neuronal differentiation score,ReNCell VM [1]; library: Spectrum,inactive: 0
same,dopaminergic neuron differentiation score,ReNCell VM [2]; library: Spectrum,inactive: 0
CCNC(=O)[C@H]1O[C@@H](n2cnc3c(N)ncnc32)[C@H](O)[C@@H]1O [5'-N-Ethylcarboxamidoadenosine],neuronal differentiation score,ReNCell VM [1]; library: LOPAC,inactive: -3
same,dopaminergic neuron differentiation score,ReNCell VM [2]; library: LOPAC,inactive: 0
CNC(=O)OCC[N+](C)(C)C [Methylcarbamylcholine chloride],neuronal differentiation score,ReNCell VM [1]; library: LOPAC,inactive: 0
same,dopaminergic neuron differentiation score,ReNCell VM [2]; library: LOPAC,inactive: 0
C[N+]1(C)CCOC(O)(c2ccc(-c3ccc(C4(O)C[N+](C)(C)CCO4)cc3)cc2)C1 (centres undefined) [Hemicholinium-3],neuronal differentiation score,ReNCell VM [1]; library: LOPAC,inactive: 0
same,dopaminergic neuron differentiation score,ReNCell VM [2]; library: LOPAC,inactive: 0
O=C(NC(=O)c1c(F)cccc1F)Nc1cc(Cl)c(OC(F)(F)C(F)C(F)(F)F)cc1Cl (centres undefined),neuronal differentiation score,ReNCell VM [1]; library: Spectrum,inactive: 0
same,dopaminergic neuron differentiation score,ReNCell VM [2]; library: Spectrum,inactive: 0
Cc1cccc(C)c1NC(=O)CN1CCCC1=O,neuronal differentiation score,ReNCell VM [1]; library: Spectrum,inactive: 0
same,dopaminergic neuron differentiation score,ReNCell VM [2]; library: Spectrum,inactive: 0
CN1Cc2ccccc2[C@@H]2c3cccc4[nH]cc(c34)C[C@H]21,neuronal differentiation score,ReNCell VM [1]; library: Tocriscreen,inactive: 0
same,dopaminergic neuron differentiation score,ReNCell VM [2]; library: Tocriscreen,inactive: 0
